Source: publication PMC4775043
No constants are given. Whether binding was seen depends on the method and setting. In cells and extracts the contact can be indirect. Some results given as binding are weak or reduced against the parent protein; the word gives no strength. Tags and fused reporters may be left off the sequences shown.

Target: T1, GFP-MED19a (Arabidopsis) (UniProt Q9FMP0)
T1 sequence: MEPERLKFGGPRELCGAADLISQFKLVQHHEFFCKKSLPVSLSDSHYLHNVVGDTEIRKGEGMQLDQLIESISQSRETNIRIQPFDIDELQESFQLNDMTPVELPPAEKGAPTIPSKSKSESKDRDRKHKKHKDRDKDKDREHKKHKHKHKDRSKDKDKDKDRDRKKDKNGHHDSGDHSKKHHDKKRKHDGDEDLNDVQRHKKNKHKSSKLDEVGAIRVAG
Assay: co-IP; co-immunoprecipitation analysis between GFP-MED19a and MED6 and MED7, read by immunoblot

B1: MED6 (protein, UniProt F4IXJ7 1-298)
chain: MDSSLLSAATADTFNGNAADQIPPPLQPPGTDMTGISFRDQLWINSYPLDRNYIFDYFALSPFYDTTCNNEILRRRSIHPLDLSHLSKMTGLEYMLTDATEPNLFVFRKQKRDGPEKVTPMLTYYILDGSIYQAPQLCSVFAARVSRTIYNISKAFTDAASKLETIRQDLQVCLVAIVLSLSVNLGSYFLLIFKLMANGEQVYGFNKFLFDTENQNEPAESKPASETVDLKEMKRVDVILTSLYRKLAPPPPPPPFPEGYVSQEALGEKEELGTQGGESQPPQVDPIIDQGPAKRMKF
With B1 the binding was “binds”.
